Experimental data taken from paper PMC4255730.
Substitutions are numbered along the chain they refer to. Results are given in words; binding and its absence hold for the method and conditions named. In cells and extracts the contact can be indirect. Some binding calls cover weakened binding; strength is not graded here. Sequences can lack the tags named with a protein. One block for each binder: values may come before it.

Molecular target: T1, SUBEX-C57Y-GFP (misfolded variant of the STRUBBELIG extracellular domain, C57Y, fused to GFP) (A. thaliana) (UniProt Q8RWZ1)
T1 sequence (chain, N-glycans at N70, N119, N243 (mainly oligomannosidic)): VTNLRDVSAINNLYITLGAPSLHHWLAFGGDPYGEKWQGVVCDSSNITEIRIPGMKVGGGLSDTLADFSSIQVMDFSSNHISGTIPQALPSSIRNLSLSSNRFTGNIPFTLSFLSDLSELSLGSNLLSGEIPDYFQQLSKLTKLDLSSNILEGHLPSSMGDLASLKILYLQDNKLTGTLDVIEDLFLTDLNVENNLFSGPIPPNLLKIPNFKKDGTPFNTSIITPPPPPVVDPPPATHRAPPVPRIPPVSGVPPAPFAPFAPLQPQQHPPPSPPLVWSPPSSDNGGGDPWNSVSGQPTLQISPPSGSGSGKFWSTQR
Test: co-IP; GFP-tagged SUBEX variants captured on GFP trap beads (1.5 h, 4°C) from RIPA extracts of co-infiltrated N. benthamiana leaves, with or without 20 μM kifunensine; co-purified proteins detected by immunoblot with anti-HA or anti-mRFP

binding: binds
B1: OS9-mRFP (protein, UniProt Q8GWH3 24-282)
chain: DQIFPAHLVGTFSRNNREPKYKIEFLPEDSPFHPGDNLESMVMLDKHGNRFLCYLPKEEKATSGWTSSQQNISTVMMETQQLVKLKTPDELLQPLSEKCLFRQEGWWSYEFCHQKYVRQLHVEDENKIVQEFFLGTFDPEATAAFNQTVSDASTDASQRYHSHVYTNGTTCDLTGSPREVEVRFVCAETRAMVTSITELSTCKYALTVQCPTLCKHPLFQLEKPVSHTIHCNAIPVEEDATRNKEEQAVDESPKMIADS

binding: binds
B2: OS9R201A-mRFP (protein, UniProt Q8GWH3 24-282)
chain: B1 chain with R178A
